The other results are listed elsewhere or left out.

The chains behind the UniProt entries cited, without tags or fusion partners. Where a name states a change or a piece, a line headed by the entry shows the natural chain unless it says otherwise.
UniProt Q9Y294, whole entry, looked up: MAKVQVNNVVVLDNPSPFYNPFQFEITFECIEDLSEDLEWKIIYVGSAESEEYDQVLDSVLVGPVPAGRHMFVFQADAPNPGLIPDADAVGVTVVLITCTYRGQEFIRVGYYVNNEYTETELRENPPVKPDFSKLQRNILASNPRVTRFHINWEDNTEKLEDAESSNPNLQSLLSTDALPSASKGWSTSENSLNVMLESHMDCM
UniProt Q8NHH9: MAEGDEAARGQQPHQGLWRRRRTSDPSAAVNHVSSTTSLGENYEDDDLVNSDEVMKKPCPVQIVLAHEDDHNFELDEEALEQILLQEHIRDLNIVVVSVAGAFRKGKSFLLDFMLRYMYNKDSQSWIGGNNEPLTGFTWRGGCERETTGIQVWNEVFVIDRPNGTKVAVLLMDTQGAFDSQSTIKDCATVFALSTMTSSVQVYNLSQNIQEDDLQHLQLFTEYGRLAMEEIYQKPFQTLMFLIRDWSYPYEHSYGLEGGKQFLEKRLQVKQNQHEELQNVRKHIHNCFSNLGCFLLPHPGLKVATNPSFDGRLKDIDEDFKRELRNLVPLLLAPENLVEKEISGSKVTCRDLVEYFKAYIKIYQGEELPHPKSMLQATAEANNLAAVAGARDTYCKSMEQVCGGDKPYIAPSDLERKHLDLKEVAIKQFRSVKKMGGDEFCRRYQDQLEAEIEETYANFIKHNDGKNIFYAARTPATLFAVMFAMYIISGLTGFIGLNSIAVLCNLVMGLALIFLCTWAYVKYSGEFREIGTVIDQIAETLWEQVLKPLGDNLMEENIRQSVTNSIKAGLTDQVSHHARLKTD
UniProt Q9H1I8: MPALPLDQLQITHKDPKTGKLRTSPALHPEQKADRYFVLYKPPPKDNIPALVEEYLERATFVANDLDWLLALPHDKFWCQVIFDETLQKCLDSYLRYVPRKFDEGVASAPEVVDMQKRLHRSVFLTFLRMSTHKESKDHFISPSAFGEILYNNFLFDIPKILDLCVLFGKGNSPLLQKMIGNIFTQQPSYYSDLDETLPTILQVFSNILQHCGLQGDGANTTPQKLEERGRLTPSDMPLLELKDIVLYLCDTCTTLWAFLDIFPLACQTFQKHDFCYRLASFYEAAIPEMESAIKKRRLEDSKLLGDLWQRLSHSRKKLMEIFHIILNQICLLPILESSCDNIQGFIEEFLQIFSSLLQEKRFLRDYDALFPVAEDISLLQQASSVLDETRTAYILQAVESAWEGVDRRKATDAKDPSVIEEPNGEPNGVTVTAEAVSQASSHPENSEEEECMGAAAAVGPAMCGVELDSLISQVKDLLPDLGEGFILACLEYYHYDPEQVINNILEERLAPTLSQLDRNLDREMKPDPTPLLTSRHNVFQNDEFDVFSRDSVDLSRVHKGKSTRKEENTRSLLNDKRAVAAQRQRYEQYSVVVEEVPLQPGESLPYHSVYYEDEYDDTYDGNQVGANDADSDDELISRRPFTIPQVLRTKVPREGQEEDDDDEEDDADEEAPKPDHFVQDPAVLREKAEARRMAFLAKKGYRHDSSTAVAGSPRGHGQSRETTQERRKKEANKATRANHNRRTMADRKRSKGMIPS
UniProt O43861: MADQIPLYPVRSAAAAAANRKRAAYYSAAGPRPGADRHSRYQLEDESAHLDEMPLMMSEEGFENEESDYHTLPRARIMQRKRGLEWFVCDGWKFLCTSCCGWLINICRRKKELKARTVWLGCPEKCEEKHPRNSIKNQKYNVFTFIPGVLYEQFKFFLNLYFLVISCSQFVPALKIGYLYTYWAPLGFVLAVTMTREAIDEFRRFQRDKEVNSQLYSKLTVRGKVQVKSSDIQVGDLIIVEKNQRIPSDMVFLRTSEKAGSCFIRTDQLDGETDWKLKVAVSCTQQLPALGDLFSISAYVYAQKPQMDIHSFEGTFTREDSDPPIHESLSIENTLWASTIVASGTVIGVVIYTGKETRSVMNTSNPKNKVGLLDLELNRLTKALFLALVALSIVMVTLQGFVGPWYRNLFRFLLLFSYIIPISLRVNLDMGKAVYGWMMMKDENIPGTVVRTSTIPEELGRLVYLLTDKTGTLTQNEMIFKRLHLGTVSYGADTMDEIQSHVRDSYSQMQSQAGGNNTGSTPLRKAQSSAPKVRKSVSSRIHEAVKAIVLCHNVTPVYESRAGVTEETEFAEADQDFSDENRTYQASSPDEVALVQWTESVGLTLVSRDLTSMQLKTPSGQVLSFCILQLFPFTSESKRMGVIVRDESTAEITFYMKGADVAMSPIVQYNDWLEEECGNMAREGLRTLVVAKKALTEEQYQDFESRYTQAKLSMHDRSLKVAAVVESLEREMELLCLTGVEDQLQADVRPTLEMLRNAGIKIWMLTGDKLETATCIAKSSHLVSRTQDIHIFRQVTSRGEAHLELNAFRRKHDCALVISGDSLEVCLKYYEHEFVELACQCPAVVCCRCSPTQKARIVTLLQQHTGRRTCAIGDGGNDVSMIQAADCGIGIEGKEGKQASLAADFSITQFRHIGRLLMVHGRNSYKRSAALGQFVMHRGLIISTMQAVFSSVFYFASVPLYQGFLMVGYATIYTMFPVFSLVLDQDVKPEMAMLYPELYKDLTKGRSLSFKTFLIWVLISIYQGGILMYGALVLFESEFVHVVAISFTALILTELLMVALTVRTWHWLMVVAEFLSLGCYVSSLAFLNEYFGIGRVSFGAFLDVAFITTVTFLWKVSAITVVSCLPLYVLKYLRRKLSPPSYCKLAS
UniProt Q9Y4P1: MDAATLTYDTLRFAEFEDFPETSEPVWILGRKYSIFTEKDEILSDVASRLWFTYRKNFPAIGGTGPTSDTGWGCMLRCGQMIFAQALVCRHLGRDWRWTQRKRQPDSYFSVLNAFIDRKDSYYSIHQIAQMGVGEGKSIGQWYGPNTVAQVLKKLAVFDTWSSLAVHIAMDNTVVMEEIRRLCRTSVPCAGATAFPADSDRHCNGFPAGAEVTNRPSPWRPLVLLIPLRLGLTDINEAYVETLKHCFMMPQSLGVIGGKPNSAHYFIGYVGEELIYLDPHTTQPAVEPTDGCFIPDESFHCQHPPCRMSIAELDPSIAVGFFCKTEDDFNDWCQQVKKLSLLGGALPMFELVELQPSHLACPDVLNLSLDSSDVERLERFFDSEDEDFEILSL
UniProt Q9UII2: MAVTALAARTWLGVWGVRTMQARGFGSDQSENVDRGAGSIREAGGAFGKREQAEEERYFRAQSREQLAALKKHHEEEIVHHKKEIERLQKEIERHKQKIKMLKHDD
UniProt P15313, whole entry, looked up: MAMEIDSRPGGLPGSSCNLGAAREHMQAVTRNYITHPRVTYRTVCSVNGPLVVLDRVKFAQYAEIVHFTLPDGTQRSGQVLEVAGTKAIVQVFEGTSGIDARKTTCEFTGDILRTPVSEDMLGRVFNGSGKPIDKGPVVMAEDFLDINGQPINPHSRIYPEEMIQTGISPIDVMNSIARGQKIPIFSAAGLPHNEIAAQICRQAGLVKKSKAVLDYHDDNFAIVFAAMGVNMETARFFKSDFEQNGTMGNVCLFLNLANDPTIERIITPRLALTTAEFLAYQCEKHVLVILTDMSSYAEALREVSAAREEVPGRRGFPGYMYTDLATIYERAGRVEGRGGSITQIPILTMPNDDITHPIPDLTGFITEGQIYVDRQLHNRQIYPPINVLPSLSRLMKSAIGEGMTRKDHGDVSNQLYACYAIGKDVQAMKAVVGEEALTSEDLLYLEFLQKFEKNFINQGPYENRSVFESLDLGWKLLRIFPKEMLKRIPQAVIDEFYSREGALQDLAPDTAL
UniProt O95260: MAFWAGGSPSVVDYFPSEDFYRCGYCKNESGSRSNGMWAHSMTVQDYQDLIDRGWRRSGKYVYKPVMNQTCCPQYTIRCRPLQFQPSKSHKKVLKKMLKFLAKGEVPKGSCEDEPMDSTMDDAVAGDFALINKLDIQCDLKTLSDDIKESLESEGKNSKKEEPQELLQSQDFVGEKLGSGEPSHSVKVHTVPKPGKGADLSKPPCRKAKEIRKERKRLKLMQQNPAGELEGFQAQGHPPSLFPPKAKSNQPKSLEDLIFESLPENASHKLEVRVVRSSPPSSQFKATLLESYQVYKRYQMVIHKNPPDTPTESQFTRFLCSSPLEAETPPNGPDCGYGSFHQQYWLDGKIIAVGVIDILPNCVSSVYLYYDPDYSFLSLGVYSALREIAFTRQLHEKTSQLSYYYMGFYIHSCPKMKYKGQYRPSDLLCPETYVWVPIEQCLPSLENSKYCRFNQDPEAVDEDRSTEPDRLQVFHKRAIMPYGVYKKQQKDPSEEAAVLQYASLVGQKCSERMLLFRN
UniProt P56378: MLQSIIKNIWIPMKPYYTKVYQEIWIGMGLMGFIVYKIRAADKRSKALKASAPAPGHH
UniProt Q9Y679: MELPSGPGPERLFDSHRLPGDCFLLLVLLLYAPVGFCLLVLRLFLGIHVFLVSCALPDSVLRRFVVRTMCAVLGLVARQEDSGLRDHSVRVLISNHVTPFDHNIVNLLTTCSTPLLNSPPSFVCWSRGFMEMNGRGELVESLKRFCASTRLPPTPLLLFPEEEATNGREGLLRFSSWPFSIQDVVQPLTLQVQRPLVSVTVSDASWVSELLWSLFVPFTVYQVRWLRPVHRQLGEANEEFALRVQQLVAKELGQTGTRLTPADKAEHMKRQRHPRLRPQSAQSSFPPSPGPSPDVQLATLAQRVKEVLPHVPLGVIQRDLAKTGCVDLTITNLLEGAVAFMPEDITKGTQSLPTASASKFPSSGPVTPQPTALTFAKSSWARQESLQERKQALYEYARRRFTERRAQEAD
UniProt Q9UBL3, whole entry, looked up: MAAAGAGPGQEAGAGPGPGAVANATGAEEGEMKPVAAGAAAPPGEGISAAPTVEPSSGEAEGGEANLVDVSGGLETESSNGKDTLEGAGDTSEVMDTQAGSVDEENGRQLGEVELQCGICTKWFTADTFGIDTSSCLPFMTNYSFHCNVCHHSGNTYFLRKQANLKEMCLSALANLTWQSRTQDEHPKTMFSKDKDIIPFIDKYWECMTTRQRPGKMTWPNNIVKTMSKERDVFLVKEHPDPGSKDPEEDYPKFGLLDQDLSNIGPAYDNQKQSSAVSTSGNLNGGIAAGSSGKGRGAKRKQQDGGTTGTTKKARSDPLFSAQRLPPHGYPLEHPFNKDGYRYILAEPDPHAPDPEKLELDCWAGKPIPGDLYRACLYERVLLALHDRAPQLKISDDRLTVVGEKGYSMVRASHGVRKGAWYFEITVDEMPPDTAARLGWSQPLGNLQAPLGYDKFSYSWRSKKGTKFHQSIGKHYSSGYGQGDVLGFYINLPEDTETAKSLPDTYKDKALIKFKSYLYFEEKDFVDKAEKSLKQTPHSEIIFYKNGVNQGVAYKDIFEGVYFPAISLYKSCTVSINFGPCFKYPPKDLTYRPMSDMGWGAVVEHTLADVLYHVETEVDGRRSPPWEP
UniProt O00244: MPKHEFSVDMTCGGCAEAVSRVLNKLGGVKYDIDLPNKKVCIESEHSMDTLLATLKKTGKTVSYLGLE
UniProt Q16864, whole entry, looked up: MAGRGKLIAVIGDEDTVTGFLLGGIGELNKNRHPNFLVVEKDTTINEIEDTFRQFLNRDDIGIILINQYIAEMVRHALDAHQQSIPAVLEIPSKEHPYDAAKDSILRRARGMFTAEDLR
UniProt P36543, whole entry, looked up: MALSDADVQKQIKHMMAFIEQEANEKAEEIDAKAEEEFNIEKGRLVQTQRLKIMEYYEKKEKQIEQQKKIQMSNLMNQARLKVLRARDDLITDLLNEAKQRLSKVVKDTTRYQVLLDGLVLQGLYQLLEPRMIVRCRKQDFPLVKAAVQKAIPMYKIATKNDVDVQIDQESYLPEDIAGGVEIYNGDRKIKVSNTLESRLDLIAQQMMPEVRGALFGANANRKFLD
UniProt O43681: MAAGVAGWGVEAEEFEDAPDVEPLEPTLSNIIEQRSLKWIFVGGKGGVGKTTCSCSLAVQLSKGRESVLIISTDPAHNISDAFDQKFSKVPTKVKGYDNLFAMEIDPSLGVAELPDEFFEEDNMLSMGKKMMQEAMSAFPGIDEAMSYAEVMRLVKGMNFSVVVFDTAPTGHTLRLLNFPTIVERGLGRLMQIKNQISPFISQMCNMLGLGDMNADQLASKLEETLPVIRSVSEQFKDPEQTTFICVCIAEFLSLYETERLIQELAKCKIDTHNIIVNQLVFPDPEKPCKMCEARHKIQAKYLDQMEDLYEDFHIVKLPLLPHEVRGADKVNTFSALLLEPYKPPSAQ
UniProt P18846: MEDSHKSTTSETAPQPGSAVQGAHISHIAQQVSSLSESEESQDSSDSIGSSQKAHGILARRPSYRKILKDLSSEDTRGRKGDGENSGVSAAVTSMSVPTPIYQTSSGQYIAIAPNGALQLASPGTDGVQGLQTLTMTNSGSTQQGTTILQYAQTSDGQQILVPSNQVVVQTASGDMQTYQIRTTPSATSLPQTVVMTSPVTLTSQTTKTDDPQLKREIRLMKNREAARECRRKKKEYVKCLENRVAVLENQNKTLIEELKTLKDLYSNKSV
UniProt Q9Y6H3: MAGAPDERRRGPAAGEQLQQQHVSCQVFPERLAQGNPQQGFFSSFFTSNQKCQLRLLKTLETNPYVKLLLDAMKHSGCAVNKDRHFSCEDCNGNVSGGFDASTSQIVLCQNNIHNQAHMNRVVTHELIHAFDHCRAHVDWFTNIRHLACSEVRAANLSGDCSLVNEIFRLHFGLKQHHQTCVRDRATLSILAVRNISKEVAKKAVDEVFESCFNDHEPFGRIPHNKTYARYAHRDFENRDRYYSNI

Compound in this test: Cc1cc(Nc2cc(N3CCN(C)CC3)nc(Sc3ccc(NC(=O)C4CC4)cc3)n2)n[nH]1 [tozasertib]
Kind of test: log2 fold change, soluble protein after heating vs DMSO (PISA); higher = thermal stabilisation; K562 lysate, 10 uM; active = over 0.2 and 3.5 SD of the protein, either way, in both replicates (recomputed). In a few lines:
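Quantification was by TMTpro 16plex LC-MS/MS with equalised channel sums, applied to the supernatant after 21,000xg for 90 min. Samples were crude K562 extract at 1 mg/mL protein in PBS pH 7.4 with 1 mM MgCl2, treated with 10 μM compound for 30 min, heated for 3 min across 48°C-58°C, pooled and brought to 0.5% NP-40 at 4°C. Values are log-two fold changes in thermal stability relative to solvent controls, from duplicates.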
With ASF1A (UniProt Q9Y294), the log2 fold change was inactive: 0.048. For ATP2B1 isoform 1 (UniProt P20020), the log2 fold change was inactive: 0.013. Consider ASF1B (UniProt Q9NVP2), for which the log2 fold change was inactive: -0.035. The result for ATP2A3 isoform 2 (UniProt Q93084) reads inactive: 0.032. On to ATL2 (UniProt Q8NHH9), for which the log2 fold change is inactive: -0.002. The result for ASCC2 (UniProt Q9H1I8) reads inactive: 0.023; that for ASNS (UniProt P08243), inactive: 0.011. Take ATP9B (UniProt O43861): the log2 fold change is inactive: 0.017. As for ASS1 (UniProt P00966), the figure is inactive: 0.019; as for ATP5F1D (UniProt P30049), inactive: 0.063. As to ATG4B (UniProt Q9Y4P1), the log2 fold change was inactive: -0.013. ATG2A isoform 3 (UniProt Q2TAZ0): the log2 fold change is inactive: -0.012. With ATP5IF1 (UniProt Q9UII2), the log2 fold change was inactive: 0.

On to ATP6V1B1 (UniProt P15313), for which the log2 fold change was inactive: 0.

As for ATP6V1A (UniProt P38606), the log2 fold change was inactive: 0.003. As for ATE1 isoform 2 (UniProt O95260), the figure is inactive: -0.003. The result for ATP5MF-PTCD1 (UniProt G3V325) reads inactive: 0.007; that for ATP5MPL (UniProt P56378), inactive: 0.026. Consider ATP5PB (UniProt P24539), for which the log2 fold change was inactive: -0.018.

On to AUP1 (UniProt Q9Y679), for which the log2 fold change was inactive: -0.032. As for ATXN10 (UniProt Q9UBB4), the log2 fold change was inactive: 0.005. The result for ASH2L (UniProt Q9UBL3) reads inactive: 0.003; that for ATOX1 (UniProt O00244), inactive: -0.004; that for ATP13A3 (UniProt Q9H7F0), inactive: -0.023. As for ATP6V1F isoform 2 (UniProt Q16864), the figure is inactive: 0.083.

Regarding ATP6V1E1 (UniProt P36543), the log2 fold change was inactive: -0.033. With ASNA1 (UniProt O43681), the log2 fold change is inactive: -0.012. Take ATP11B (UniProt Q9Y2G3): the log2 fold change is inactive: 0.027. For ATR (UniProt Q13535), the log2 fold change is inactive: 0.044.

As to ATF1 (UniProt P18846), the log2 fold change was inactive: -0.11.

For ATP23 (UniProt Q9Y6H3), the log2 fold change was inactive: 0.01.

Turning to ATP6V0A2 (UniProt Q9Y487), the log2 fold change is inactive: 0.004. For the target ASB6 (UniProt Q9NWX5), the log2 fold change is inactive: -0.159.
